Source: PubChem BioAssay AID504804 (Drosophila RNAi Screening Center, 2011)
Test: 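Knock-downs shielding fly cells from apoptosis caused by DNA damage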 (primary screen). System: Drosophila Kc cells. Knock-down reagent: long dsRNA against Drosophila genes, 0.5 µg dsRNA per well. Time to read-out: 96 h (48 h knock-down, then 48 h drug). Conditions: doxorubicin 5 µg/ml for 48 h, added 48 h after dsRNA. Measurement: 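Luminescent ATP counts per replicate, not normalised, reflecting viable cells after 48 h dsRNA knock-down followed by 48 h of 5 µg/ml doxorubicin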. Scale: raw ATP luminescence: higher = more viable cells, protection from doxorubicin. Call rule: 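z-score of 2 or more over plate mean in both duplicates, retained only when retests and separate dsRNAs confirm the protection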.
The deposit covers about 19,000 reagents; shown is a random part of those with a known target gene and a result. In the full data, 47 (0.25%) got an active call. 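Signals are raw, not normalised; exact z-scores behind calls not deposited; actives needed confirmation, so some wells reaching 2 SD are inactive.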 Unmarked entries are inactive. Names joined by + are all predicted targets of the reagent.

{"gene knocked down":"CG18682 (retired record) (GeneID 50098)","amplicon":"DRSC15373","raw ATP luminescence, replicate 1":61970,"raw ATP luminescence, replicate 2":75970}
{"gene knocked down":"CG18682 (retired record) (GeneID 50098)","amplicon":"DRSC15374","raw ATP luminescence, replicate 1":73030,"raw ATP luminescence, replicate 2":69810}
{"gene knocked down":"Dbp45A (GeneID 35917)","amplicon":"DRSC07395","raw ATP luminescence, replicate 1":60743,"raw ATP luminescence, replicate 2":49433}
{"gene knocked down":"KrT95D (GeneID 42843)","amplicon":"DRSC16725","raw ATP luminescence, replicate 1":35427,"raw ATP luminescence, replicate 2":47557}
{"gene knocked down":"SLIRP2 (GeneID 41021)","amplicon":"DRSC16363","raw ATP luminescence, replicate 1":66507,"raw ATP luminescence, replicate 2":58723}
{"gene knocked down":"Ddx56 (GeneID 33118)","amplicon":"DRSC20567","raw ATP luminescence, replicate 1":2.99e5,"raw ATP luminescence, replicate 2":2.94e5}
{"gene knocked down":"CG4287 (GeneID 41939)","amplicon":"DRSC15559","raw ATP luminescence, replicate 1":67363,"raw ATP luminescence, replicate 2":63347}
{"gene knocked down":"Gp150 (GeneID 37549)","amplicon":"DRSC04618","raw ATP luminescence, replicate 1":26417,"raw ATP luminescence, replicate 2":34257}
{"gene knocked down":"CG3706 (GeneID 53540)","amplicon":"DRSC18649","raw ATP luminescence, replicate 1":57870,"raw ATP luminescence, replicate 2":48310}
{"gene knocked down":"CG4230 (GeneID 33743)","amplicon":"DRSC02740","raw ATP luminescence, replicate 1":1.13e5,"raw ATP luminescence, replicate 2":60873}
{"gene knocked down":"CG14756 (GeneID 35798)","amplicon":"DRSC06491","raw ATP luminescence, replicate 1":54507,"raw ATP luminescence, replicate 2":77237}
{"gene knocked down":"nAChRalpha2 (GeneID 42919)","amplicon":"DRSC17009","raw ATP luminescence, replicate 1":41497,"raw ATP luminescence, replicate 2":41537}
{"gene knocked down":"VAChT + ChAT","amplicon":"DRSC13312","raw ATP luminescence, replicate 1":3.07e5,"raw ATP luminescence, replicate 2":2.71e5}
{"gene knocked down":"CG8679 (GeneID 35395)","amplicon":"DRSC03109","raw ATP luminescence, replicate 1":40113,"raw ATP luminescence, replicate 2":57070}
{"gene knocked down":"Kaz (GeneID 326135)","amplicon":"DRSC14637","raw ATP luminescence, replicate 1":66310,"raw ATP luminescence, replicate 2":60310}
{"gene knocked down":"Tcs5 (GeneID 38600)","amplicon":"DRSC09774","raw ATP luminescence, replicate 1":93573,"raw ATP luminescence, replicate 2":85977}
{"gene knocked down":"Skadu (GeneID 8673966)","amplicon":"DRSC01490","raw ATP luminescence, replicate 1":2.79e5,"raw ATP luminescence, replicate 2":2.62e5}
{"gene knocked down":"CG17985 (GeneID 35702)","amplicon":"DRSC06702","raw ATP luminescence, replicate 1":44093,"raw ATP luminescence, replicate 2":70773}
{"gene knocked down":"HisT (GeneID 35697)","amplicon":"DRSC05051","raw ATP luminescence, replicate 1":76423,"raw ATP luminescence, replicate 2":73927}
{"gene knocked down":"HisT (GeneID 35697)","amplicon":"DRSC05052","raw ATP luminescence, replicate 1":73127,"raw ATP luminescence, replicate 2":91537}
{"gene knocked down":"HisT (GeneID 35697)","amplicon":"DRSC06405","SD above plate mean":"at least 2 SD above plate mean (active)","raw ATP luminescence, replicate 1":91247,"raw ATP luminescence, replicate 2":86530}
{"gene knocked down":"nmdyn-D7 (GeneID 41174)","amplicon":"DRSC17016","raw ATP luminescence, replicate 1":54873,"raw ATP luminescence, replicate 2":67550}
{"gene knocked down":"CG3649 (GeneID 37626)","amplicon":"DRSC04400","raw ATP luminescence, replicate 1":89203,"raw ATP luminescence, replicate 2":59280}
{"gene knocked down":"CG5623 (GeneID 41904)","amplicon":"DRSC15848","raw ATP luminescence, replicate 1":63160,"raw ATP luminescence, replicate 2":67110}
{"gene knocked down":"CG4984 + CG4975","amplicon":"DRSC06908","raw ATP luminescence, replicate 1":58363,"raw ATP luminescence, replicate 2":57347}
{"gene knocked down":"CG2577 (GeneID 32188)","amplicon":"DRSC19863","raw ATP luminescence, replicate 1":3.39e5,"raw ATP luminescence, replicate 2":3.46e5}
{"gene knocked down":"CG8501 (GeneID 36347)","amplicon":"DRSC07198","raw ATP luminescence, replicate 1":47633,"raw ATP luminescence, replicate 2":43180}
{"gene knocked down":"CG42496 + Ppcdc","amplicon":"DRSC03886","raw ATP luminescence, replicate 1":69523,"raw ATP luminescence, replicate 2":65340}
{"gene knocked down":"CG6700 (GeneID 34496)","amplicon":"DRSC02980","raw ATP luminescence, replicate 1":64793,"raw ATP luminescence, replicate 2":47917}
{"gene knocked down":"ZnT77C (GeneID 40271)","amplicon":"DRSC11766","raw ATP luminescence, replicate 1":63307,"raw ATP luminescence, replicate 2":65647}
{"gene knocked down":"ZnT77C (GeneID 40271)","amplicon":"DRSC11767","raw ATP luminescence, replicate 1":86107,"raw ATP luminescence, replicate 2":83957}
{"gene knocked down":"Septin1 (GeneID 33114)","amplicon":"DRSC20573","raw ATP luminescence, replicate 1":2.25e5,"raw ATP luminescence, replicate 2":2.71e5}
{"gene knocked down":"sinu (GeneID 46187)","amplicon":"DRSC09752","raw ATP luminescence, replicate 1":2.22e5,"raw ATP luminescence, replicate 2":2.27e5}
{"gene knocked down":"CG31848 (GeneID 318980)","amplicon":"DRSC01309","raw ATP luminescence, replicate 1":3.23e5,"raw ATP luminescence, replicate 2":3.10e5}
{"gene knocked down":"CG14292 (GeneID 42264)","amplicon":"DRSC14772","raw ATP luminescence, replicate 1":32010,"raw ATP luminescence, replicate 2":27160}
{"gene knocked down":"Aps (GeneID 39226)","amplicon":"DRSC10629","raw ATP luminescence, replicate 1":1.10e5,"raw ATP luminescence, replicate 2":77050}
